Test results reported in the supplement of paper PMC10849652.
The list shows a part of the results.

By UniProt entry, the sequences of proteins in these tests, tags left out. Where a name states a change or a piece, a line headed by the entry shows the natural chain unless it says otherwise.
UniProt Q9H553: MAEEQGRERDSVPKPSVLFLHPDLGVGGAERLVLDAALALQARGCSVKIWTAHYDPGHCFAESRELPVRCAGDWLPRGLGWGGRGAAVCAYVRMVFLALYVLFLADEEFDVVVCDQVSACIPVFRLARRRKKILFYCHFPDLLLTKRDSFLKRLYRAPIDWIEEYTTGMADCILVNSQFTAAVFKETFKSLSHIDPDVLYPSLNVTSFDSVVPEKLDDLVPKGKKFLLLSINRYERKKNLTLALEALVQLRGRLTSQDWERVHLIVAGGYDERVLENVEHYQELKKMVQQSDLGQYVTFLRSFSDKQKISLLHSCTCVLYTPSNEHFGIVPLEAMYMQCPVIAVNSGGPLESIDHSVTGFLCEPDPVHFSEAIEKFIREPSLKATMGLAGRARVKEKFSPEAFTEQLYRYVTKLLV
UniProt Q92688: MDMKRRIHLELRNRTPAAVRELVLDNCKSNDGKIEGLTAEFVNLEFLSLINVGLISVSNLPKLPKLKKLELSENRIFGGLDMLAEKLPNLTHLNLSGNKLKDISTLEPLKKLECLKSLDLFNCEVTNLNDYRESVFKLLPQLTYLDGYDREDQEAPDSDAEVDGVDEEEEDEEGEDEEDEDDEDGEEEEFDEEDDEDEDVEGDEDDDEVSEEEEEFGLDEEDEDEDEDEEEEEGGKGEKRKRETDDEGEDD
UniProt Q9P2R3: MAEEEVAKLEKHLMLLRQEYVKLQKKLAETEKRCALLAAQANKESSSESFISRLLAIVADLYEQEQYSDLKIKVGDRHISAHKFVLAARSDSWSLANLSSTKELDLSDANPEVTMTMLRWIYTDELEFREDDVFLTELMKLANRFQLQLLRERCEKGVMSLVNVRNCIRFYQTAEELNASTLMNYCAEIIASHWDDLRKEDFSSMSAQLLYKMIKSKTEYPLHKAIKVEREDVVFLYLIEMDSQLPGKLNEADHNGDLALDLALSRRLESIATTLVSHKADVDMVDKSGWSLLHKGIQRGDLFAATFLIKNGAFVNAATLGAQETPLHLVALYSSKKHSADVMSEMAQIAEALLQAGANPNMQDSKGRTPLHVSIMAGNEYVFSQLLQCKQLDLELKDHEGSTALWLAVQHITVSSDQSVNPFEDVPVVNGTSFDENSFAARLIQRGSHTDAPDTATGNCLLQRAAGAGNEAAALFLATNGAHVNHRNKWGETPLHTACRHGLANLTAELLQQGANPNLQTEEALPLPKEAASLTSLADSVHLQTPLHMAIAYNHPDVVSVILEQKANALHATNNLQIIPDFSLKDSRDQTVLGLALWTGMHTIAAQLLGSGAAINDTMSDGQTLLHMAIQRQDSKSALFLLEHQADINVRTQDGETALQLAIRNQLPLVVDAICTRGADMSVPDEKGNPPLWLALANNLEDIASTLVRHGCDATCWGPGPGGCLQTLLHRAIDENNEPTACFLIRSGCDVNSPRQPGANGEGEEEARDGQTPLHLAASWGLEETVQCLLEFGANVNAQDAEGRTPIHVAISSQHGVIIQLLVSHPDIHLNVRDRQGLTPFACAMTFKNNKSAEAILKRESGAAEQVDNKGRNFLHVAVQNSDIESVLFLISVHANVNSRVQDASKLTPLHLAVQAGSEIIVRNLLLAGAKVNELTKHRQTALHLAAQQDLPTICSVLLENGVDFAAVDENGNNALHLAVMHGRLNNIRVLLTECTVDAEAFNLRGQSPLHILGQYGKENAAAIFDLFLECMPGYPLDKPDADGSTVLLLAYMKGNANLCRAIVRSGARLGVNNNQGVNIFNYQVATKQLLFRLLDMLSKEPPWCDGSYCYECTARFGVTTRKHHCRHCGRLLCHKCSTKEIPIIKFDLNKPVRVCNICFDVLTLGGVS
UniProt Q8IWZ3: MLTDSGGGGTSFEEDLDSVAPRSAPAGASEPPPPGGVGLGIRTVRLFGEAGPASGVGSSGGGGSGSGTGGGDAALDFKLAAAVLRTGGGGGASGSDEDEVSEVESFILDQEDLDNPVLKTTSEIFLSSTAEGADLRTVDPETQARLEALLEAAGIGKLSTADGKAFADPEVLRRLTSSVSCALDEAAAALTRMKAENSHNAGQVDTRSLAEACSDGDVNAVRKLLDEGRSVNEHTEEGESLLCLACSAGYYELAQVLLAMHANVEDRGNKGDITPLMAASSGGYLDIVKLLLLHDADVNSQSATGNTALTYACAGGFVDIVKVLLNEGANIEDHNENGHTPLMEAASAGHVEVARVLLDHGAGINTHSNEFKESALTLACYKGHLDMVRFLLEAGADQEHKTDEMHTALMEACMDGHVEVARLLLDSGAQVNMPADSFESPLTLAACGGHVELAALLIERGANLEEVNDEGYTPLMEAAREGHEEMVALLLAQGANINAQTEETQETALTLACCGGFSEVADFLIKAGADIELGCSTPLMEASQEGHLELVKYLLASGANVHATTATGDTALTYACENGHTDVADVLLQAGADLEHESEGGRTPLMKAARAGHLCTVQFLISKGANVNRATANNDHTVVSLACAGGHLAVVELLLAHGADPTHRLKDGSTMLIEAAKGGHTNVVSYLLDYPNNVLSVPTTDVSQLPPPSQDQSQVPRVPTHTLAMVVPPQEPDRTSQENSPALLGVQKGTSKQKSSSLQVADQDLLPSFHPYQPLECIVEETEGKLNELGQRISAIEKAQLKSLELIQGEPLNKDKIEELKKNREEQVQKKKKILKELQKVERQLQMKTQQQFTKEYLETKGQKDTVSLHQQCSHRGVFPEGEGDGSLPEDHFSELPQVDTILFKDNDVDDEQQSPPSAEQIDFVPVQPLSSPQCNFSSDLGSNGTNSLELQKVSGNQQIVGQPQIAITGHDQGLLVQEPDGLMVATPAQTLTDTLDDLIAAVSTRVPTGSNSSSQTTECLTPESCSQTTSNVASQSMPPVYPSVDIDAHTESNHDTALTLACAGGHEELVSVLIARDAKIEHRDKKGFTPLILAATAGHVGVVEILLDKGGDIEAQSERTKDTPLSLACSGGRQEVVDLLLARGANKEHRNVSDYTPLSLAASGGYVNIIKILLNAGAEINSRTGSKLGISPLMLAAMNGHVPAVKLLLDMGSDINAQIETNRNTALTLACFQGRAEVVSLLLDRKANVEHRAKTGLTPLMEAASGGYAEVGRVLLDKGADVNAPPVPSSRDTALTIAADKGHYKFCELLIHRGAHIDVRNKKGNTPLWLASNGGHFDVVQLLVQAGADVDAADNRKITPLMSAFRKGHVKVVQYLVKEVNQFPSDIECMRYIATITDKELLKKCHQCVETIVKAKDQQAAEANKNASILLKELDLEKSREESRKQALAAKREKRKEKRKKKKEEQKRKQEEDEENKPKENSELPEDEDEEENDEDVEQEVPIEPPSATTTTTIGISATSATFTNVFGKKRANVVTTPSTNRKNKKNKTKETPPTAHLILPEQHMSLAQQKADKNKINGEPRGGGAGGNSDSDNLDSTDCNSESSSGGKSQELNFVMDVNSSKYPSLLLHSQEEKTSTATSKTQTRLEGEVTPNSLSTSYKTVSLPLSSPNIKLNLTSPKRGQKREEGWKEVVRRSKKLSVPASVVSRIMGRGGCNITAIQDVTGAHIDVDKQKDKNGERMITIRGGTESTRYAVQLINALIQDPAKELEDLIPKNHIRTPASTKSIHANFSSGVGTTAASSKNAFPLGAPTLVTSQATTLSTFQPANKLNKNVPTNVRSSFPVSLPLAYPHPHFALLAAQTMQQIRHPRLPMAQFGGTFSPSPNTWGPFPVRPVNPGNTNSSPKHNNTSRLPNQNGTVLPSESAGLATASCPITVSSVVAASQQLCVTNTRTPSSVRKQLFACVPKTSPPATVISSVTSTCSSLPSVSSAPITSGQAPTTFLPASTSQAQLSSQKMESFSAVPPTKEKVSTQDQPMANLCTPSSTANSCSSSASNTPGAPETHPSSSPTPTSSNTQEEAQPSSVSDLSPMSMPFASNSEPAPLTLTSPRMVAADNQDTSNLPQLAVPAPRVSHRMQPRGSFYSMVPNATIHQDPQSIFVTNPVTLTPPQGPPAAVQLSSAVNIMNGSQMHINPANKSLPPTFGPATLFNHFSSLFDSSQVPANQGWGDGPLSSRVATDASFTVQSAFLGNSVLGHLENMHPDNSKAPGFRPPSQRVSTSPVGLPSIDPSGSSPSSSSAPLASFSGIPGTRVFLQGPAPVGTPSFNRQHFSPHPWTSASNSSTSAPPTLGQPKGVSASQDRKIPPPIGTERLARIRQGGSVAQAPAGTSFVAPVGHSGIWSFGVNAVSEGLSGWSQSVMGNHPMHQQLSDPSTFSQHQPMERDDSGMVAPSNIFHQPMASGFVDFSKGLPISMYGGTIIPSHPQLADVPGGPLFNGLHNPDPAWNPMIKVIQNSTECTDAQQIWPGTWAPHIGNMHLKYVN
UniProt Q02252: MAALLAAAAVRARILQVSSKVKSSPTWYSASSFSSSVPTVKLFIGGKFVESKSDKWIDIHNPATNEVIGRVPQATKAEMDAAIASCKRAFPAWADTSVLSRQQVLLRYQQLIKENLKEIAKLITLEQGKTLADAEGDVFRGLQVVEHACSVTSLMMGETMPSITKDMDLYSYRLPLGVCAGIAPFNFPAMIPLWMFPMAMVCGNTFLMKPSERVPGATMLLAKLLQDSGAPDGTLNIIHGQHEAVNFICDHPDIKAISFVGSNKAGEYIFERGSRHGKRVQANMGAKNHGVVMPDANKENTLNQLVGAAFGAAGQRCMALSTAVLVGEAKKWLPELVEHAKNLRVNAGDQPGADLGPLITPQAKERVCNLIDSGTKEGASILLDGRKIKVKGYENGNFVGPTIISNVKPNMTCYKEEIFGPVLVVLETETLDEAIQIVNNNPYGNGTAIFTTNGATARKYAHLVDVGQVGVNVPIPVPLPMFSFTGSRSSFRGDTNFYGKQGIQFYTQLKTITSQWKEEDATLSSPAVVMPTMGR
UniProt P31749: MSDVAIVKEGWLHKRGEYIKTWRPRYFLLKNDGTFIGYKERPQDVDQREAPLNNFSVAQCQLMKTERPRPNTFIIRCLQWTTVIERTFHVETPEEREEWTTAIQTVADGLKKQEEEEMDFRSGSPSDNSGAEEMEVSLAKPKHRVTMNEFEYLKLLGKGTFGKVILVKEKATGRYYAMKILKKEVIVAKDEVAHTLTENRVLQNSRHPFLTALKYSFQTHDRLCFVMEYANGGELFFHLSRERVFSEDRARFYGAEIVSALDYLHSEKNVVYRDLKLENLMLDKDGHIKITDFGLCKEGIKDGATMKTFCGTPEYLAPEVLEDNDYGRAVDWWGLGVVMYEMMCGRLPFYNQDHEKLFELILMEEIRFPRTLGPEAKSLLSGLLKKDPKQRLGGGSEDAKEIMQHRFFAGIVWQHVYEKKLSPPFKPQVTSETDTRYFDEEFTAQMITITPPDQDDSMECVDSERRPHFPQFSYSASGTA
UniProt Q3SY69: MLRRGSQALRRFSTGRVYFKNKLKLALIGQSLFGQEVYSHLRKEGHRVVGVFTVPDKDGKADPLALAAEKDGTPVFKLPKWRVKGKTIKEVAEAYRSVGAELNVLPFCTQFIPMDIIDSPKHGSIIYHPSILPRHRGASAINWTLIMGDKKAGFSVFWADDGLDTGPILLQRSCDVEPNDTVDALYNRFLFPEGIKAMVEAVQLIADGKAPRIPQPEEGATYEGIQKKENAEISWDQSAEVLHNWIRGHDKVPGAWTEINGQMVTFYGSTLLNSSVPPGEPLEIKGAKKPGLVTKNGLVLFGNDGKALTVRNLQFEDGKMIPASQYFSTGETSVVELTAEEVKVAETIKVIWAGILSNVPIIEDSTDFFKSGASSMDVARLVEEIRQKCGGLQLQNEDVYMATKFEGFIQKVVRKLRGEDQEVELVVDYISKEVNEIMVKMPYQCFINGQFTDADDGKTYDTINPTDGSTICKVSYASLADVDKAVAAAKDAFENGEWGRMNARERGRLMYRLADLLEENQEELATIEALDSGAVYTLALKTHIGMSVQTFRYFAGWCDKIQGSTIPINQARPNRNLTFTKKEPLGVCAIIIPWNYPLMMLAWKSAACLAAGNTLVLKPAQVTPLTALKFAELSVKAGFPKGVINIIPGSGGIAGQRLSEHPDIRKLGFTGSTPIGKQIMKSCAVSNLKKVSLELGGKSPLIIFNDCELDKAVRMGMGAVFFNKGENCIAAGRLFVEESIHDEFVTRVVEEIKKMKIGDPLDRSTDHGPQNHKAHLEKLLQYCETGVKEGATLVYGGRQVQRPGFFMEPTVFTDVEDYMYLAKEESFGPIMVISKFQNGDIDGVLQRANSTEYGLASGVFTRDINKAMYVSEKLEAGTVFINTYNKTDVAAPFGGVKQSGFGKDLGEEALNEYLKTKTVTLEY
UniProt Q9UM13, whole entry, looked up: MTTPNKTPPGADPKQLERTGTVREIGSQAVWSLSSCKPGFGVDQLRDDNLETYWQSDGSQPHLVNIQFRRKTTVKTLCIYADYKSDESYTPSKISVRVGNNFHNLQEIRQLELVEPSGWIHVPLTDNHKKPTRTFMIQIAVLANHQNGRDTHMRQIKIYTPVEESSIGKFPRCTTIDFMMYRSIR

Compound: COc1cc(Nc2ncc3c(n2)-c2ccc(Cl)cc2C(c2c(F)cccc2OC)=NC3)ccc1C(=O)O [alisertib]
Test: log2 fold change, soluble protein after heating vs DMSO (PISA); higher = thermal stabilisation; K562 lysate, 10 uM; active = over 0.2 and 3.5 SD of the protein, either way, in both replicates (recomputed)
Summary of the method: (§1)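 Dounce homogenisation of K562 pellets in PBS pH 7.4 with 1 mM MgCl2 produced a crude extract, used at 1 mg/mL protein. Exposure to 10 μM compound lasted 30 min, and aliquots were then heated for 3 min across 48°C-58°C, pooled and brought to 0.5% NP-40 at 4°C. The supernatant after 21,000xg for 90 min was quantified by TMTpro 16plex LC-MS/MS with channel sums equalised. Duplicate values are given as log-two fold change in thermal stability relative to solvent controls.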

log2 fold change, inactive:
ALDH1A1 (UniProt P00352) 0.01
ALDOA (UniProt P04075) 0.004
ALG2 (UniProt Q9H553) 0.04
ANP32B (UniProt Q92688) 0.032
ANKRD30B (UniProt Q9BXX2) -0.002
ANKRD52 (UniProt Q8NB46) 0.005
AP3B2 isoform 4 (UniProt Q13367) 0.014
ALG13 (UniProt Q9NP73) -0.059
ANKFY1 isoform 4 (UniProt Q9P2R3) -0.038
AP4E1 (UniProt Q9UPM8) 0.011
ANKHD1 isoform 6 (UniProt Q8IWZ3) 0.031
ALDH4A1 (UniProt P30038) -0.03
ALDH9A1 isoform 3 (UniProt P49189) -0.019
ALKBH2 (UniProt Q6NS38) 0.062
ALDH6A1 (UniProt Q02252) 0.086
ANAPC5 (UniProt Q9UJX4) 0.001
AKT1 (UniProt P31749) 0.019
ANO10 (UniProt Q9NW15) 0.002
AP1S1 (UniProt P61966) -0.001
ALDH1B1 (UniProt P30837) -0.002
ALDH1L2 (UniProt Q3SY69) -0.039
ANPEP (UniProt P15144) -0.082
ANXA5 (UniProt P08758) 0.052
ANAPC10 (UniProt Q9UM13) 0.008
ALDH1A2 (UniProt O94788) 0.009
AKT1S1 isoform 3 (UniProt Q96B36) -0.002
ANAPC7 (UniProt Q9UJX3) -0.001
AP1G1 isoform 2 (UniProt O43747) -0.003
ALG8 (UniProt Q9BVK2) 0.076
ANXA2 isoform 2 (UniProt P07355) 0.002

Compound: COc1cc2nc(-c3cc(F)ccc3O)nc(N[C@@H]3CNC[C@H]3C(C)(C)O)c2cc1OC
Test: as above
Summary of the method: as §1

log2 fold change, inactive:
ALDH1A1 (UniProt P00352) -0.001
ALDOA (UniProt P04075) -0.009
ALG2 (UniProt Q9H553) 0.049
ANP32B (UniProt Q92688) -0.012
ANKRD30B (UniProt Q9BXX2) -0.067
ANKRD52 (UniProt Q8NB46) 0
AP3B2 isoform 4 (UniProt Q13367) -0.018
ALG13 (UniProt Q9NP73) 0
ANKFY1 isoform 4 (UniProt Q9P2R3) 0.002
AP4E1 (UniProt Q9UPM8) -0.007
ANKHD1 isoform 6 (UniProt Q8IWZ3) -0.005
ALDH4A1 (UniProt P30038) -0.012
ALDH9A1 isoform 3 (UniProt P49189) -0.003
ALKBH2 (UniProt Q6NS38) -0.115
ALDH6A1 (UniProt Q02252) 0.061
ANAPC5 (UniProt Q9UJX4) 0.002
AKT1 (UniProt P31749) 0.003
ANO10 (UniProt Q9NW15) -0.114
AP1S1 (UniProt P61966) -0.038
ALDH1B1 (UniProt P30837) 0.006
ALDH1L2 (UniProt Q3SY69) 0.039
ANPEP (UniProt P15144) 0.047
ANXA5 (UniProt P08758) -0.009
ANAPC10 (UniProt Q9UM13) -0.002
ALDH1A2 (UniProt O94788) -0.013
AKT1S1 isoform 3 (UniProt Q96B36) 0.012
ANAPC7 (UniProt Q9UJX3) 0.005
AP1G1 isoform 2 (UniProt O43747) 0.012
ALG8 (UniProt Q9BVK2) -0.019
ANXA2 isoform 2 (UniProt P07355) 0.003

Compound: COc1cc2ncnc(Nc3ccc(F)c(Cl)c3)c2cc1OCCCN1CCOCC1 [gefitinib]
Test: as above
Summary of the method: as §1

log2 fold change, inactive:
ALDH1A1 (UniProt P00352) -0.017
ALDOA (UniProt P04075) -0.051
ALG2 (UniProt Q9H553) 0.026
ANP32B (UniProt Q92688) 0.007
ANKRD30B (UniProt Q9BXX2) -0.036
ANKRD52 (UniProt Q8NB46) 0.039
AP3B2 isoform 4 (UniProt Q13367) 0.02
ALG13 (UniProt Q9NP73) -0.224
ANKFY1 isoform 4 (UniProt Q9P2R3) 0.003
AP4E1 (UniProt Q9UPM8) -0.033
ANKHD1 isoform 6 (UniProt Q8IWZ3) -0.002
ALDH4A1 (UniProt P30038) -0.001
ALDH9A1 isoform 3 (UniProt P49189) -0.043
ALKBH2 (UniProt Q6NS38) -0.086
ALDH6A1 (UniProt Q02252) 0.098
ANAPC5 (UniProt Q9UJX4) 0.017
AKT1 (UniProt P31749) -0.05
ANO10 (UniProt Q9NW15) 0.008
AP1S1 (UniProt P61966) -0.032
ALDH1B1 (UniProt P30837) -0.026
ALDH1L2 (UniProt Q3SY69) 0.017
ANPEP (UniProt P15144) 0.002
ANXA5 (UniProt P08758) 0.049
ANAPC10 (UniProt Q9UM13) 0.012
ALDH1A2 (UniProt O94788) -0.007
AKT1S1 isoform 3 (UniProt Q96B36) 0.138
ANAPC7 (UniProt Q9UJX3) 0.017
AP1G1 isoform 2 (UniProt O43747) -0.005
ALG8 (UniProt Q9BVK2) 0.103
ANXA2 isoform 2 (UniProt P07355) -0.009
